Reference: US20160331721A1, “COMPOSITION FOR ALLEVIATING AND PREVENTING ALZHEIMER'S DISEASE” (Sunway Biotech Co., LTD, priority 2015, published 2016)
At least one structure is not confirmed: it was looked up by name or label, or the drawing left a doubt.

Key:
Assay type in all cases: in vivo, SD rats
[1] = tested on: β-Amyloid 40 (Aβ 40 protein); assay: Aβ protein accumulation images of Cortex; conditions: FIG. 15, compared to AD rats of Aβ group, 1-fold and 3-fold dosage groups
[2] = tested on: Aβ-induced AD (Alzheimer's disease) rats; assay: Working memory test in water maze (Day 27); conditions: FIG. 10, compared to Aβ group
Description: (§1) Therefore, above descriptions have completely introduce the fabricating way for this Alzheimer's disease alleviating and preventing composition. Next, a variety of experimental data will be presented in following paragraphs for proving the practicability of the Alzheimer's disease alleviating and preventing composition. Please refer to FIG. 4, which shoes an experiment grouping table.
(§2) Please continuously refer to FIG. 5, where a daily schedule diagram for the animal experiments are provided.

[3] = tested on: secreted amyloid precursor protein-α (sAPPα); assay: sAPPα accumulation images of Cortex; conditions: FIG. 16, compared to AD rats of Aβ group, 1-fold and 3-fold dosage groups
[4] = tested on: Aβ-induced AD (Alzheimer's disease) rats; assay: Reference memory test in water maze (Day 24); conditions: FIG. 7, compared to Aβ group, 1-fold and 3-fold dosage groups
[5] = tested on: Aβ-induced AD (Alzheimer's disease) rats; assay: Spatial probe test in water maze (Day 26); conditions: for swimming route in spatial probe test: FIG. 8, compared to Aβ group (non-directional swimming), rest platform removed; for time spent for searching target quadrant: FIG. 9, compared to Aβ group, target quadrant IV
Description: as §1, §2
Next, spatial probe test is completed on Day 26. During the spatial probe test, the rest platform is removed out of the water tank. To carry out the spatial probe test, the test rat is put on the starting point 1 located in quadrant I; and then, letting the rat swim in the water tank for 90 seconds so as to record the rat's swimming route as well as the time for staying in quadrant IV. Please refer to FIG. 8, which provides swimming route records of the test rats as working the spatial navigation test.

## C/C=C/C1=CC2=C(CO1)C(=O)[C@]1(C)OC(=O)[C@H](C(=O)CCCCCCC)[C@H]1C2 [Ankaflavin]
[1]
  accumulation of Aβ 40 protein on Cortex: obviously reduced
[2]
  escape latency, working memory test: able to alleviating the symptoms of memory loss
[3]
  accumulation of sAPPα on Cortex: obviously reduced
[4]
  escape latency (time to find the rest platform), reference memory test: spend less time to find the rest platform
[5]
  swimming route in spatial probe test: directly swim into the quadrant IV
  time spent for searching target quadrant: able to alleviating the symptoms of memory loss and learning disability

## C/C=C/C1=CC2=C(CO1)C(=O)[C@]1(C)OC(=O)[C@H](C(=O)CCCCC)[C@H]1C2 [Monascin]
[1]
  accumulation of Aβ 40 protein on Cortex: obviously reduced
[2]
  escape latency, working memory test: able to alleviating the symptoms of memory loss
[3]
  accumulation of sAPPα on Cortex: obviously reduced
[4]
  escape latency (time to find the rest platform), reference memory test: spend less time to find the rest platform
[5]
  swimming route in spatial probe test: directly swim into the quadrant IV
  time spent for searching target quadrant: able to alleviating the symptoms of memory loss and learning disability
